Drawing on the supplement of paper PMC11348887, this text covers nucleus roundness z-score for 39 molecules.

Where a name gives a salt, the structure may show the parent alone. The list shows a part of the results. Small differences around the control level are noise.

For this assay, the system named is hPSC-derived cortical neurons (WA09). Description: nucleus roundness z-score vs screen plate; higher = rounder nuclei (more mature). Particulars: 5 µM; treatment: days 7-14 after plating, readout day 21.
For the molecule `CC[C@]1(O)C[C@H]2CN(CCc3c([nH]c4ccccc34)[C@@](C(=O)OC)(c3cc4c(cc3OC)N(C=O)[C@H]3[C@@](O)(C(=O)OC)[C@H](OC(C)=O)[C@]5(CC)C=CCN6CC[C@]43[C@@H]65)C2)C1` [Vincristine], the nucleus roundness z-score was 0.0125.

As for `CC(=O)OCC(=O)[C@@]1(O)[C@H](C)C[C@H]2[C@@H]3CCC4=CC(=O)C=C[C@]4(C)[C@@]3(F)[C@@H](O)C[C@@]21C` [Dexamethasone Acetate], the nucleus roundness z-score is -1.48.

With `CCCCCCCCCCCCCCCCn1cc[n+](Cc2ccccc2)c1C`, the nucleus roundness z-score is -105.

Regarding `NC1=N[C@@]2(c3cc(NC(=O)c4ccc(F)cn4)ccc3F)COC[C@H]2CS1`, the nucleus roundness z-score is -0.928.

`O=C(Nc1cccc2cccnc12)c1ccc(N2C(=O)[C@@H]3[C@H](C2=O)[C@@H]2C=C[C@H]3C2)cc1` [IWR-1-endo] gave a nucleus roundness z-score of 0.15.

As for `CC(C)(C)C(=O)C(Oc1ccc(Cl)cc1)n1ccnc1` (centres undefined) [Climbazole], the nucleus roundness z-score worked out at 0.531.

Turning to `O=C1Nc2ccc(I)cc2/C1=C/c1cc(Br)c(O)c(Br)c1`, the nucleus roundness z-score was -0.675.

With `COc1ccc(/C=C\c2cc(OC)c(OC)c(OC)c2)cc1O` [Combretastatin A4], the nucleus roundness z-score was -11.

With `CN(c1ccccc1CNc1nc(Nc2ccc3c(c2)CC(=O)N3)ncc1C(F)(F)F)S(C)(=O)=O`, the nucleus roundness z-score was -1.47.

Turning to `COc1ccc(C2=N[C@H](c3ccc(Cl)cc3)[C@H](c3ccc(Cl)cc3)N2C(=O)N2CCNC(=O)C2)c(OC(C)C)c1` [Nutlin-3b], the nucleus roundness z-score was 1.84.

In turn, `OCCOc1ccc(/C(=C(/CCCl)c2ccccc2)c2ccccc2)cc1` [Ospemifene] showed a nucleus roundness z-score of 0.884.

`Cc1ccccc1CN1C2=NCCN2C(=O)C2=C1CCN(Cc1ccccc1)C2` [TIC10 Analogue] displayed a nucleus roundness z-score of 1.69.

In the case of `CNC[C@H](O)[C@@H](O)[C@H](O)[C@H](O)CO` [Meglumine], the nucleus roundness z-score amounted to 0.179.

As to `Cc1c(C)c2c(c(C)c1O)CC[C@@](C)(CCC[C@H](C)CCC[C@H](C)CCCC(C)C)O2` [Vitamin E], the nucleus roundness z-score was found to be 0.37.

`COc1ccnc2[nH]cc(C(=O)C(=O)N3CCN(C(=O)c4ccccc4)C[C@H]3C)c12` yielded a nucleus roundness z-score of 0.121.

For the molecule `Cc1cc(Nc2ccc(NC(=O)c3ccc(Nc4ccnc5ccccc45)cc3)cc2)nc(N)n1`, the nucleus roundness z-score was -1.61.

On to `CCC(=O)OCC(=O)[C@@]1(OC(=O)CC)[C@@H](C)C[C@H]2[C@@H]3CCC4=CC(=O)C=C[C@]4(C)[C@@]3(Cl)[C@@H](O)C[C@@]21C` [Beclomethasone dipropionate], for which the nucleus roundness z-score was -1.26.

Take `CN(C)[C@@H]1C(O)=C(C(N)=O)C(=O)[C@@]2(O)C(O)=C3C(=O)c4c(O)cccc4[C@@](C)(O)[C@H]3C[C@@H]12` [Tetracycline HCl]: the nucleus roundness z-score was 0.848.

In turn, `CCC[C@@H]1C[C@@H](C(=O)N[C@@H]([C@H]2O[C@H](SC)[C@H](OP(=O)(O)O)[C@@H](O)[C@H]2O)[C@H](C)Cl)N(C)C1` [Clindamycin Phosphate] yielded a nucleus roundness z-score of 0.316.

`O=S(=O)(NCCNC/C=C/c1ccc(Br)cc1)c1cccc2cnccc12` returned a nucleus roundness z-score of 1.04.

Consider `O=C(O)c1cc2cccc([N+](=O)[O-])c2[nH]1`, for which the nucleus roundness z-score amounted to 0.315.

As for `CNC1CCC(N(Cc2cccc(-c3ccncc3)c2)C(=O)c2sc3ccccc3c2Cl)CC1` (centres undefined) [Smoothened Agonist (SAG) HCl], the nucleus roundness z-score was -0.481.

In turn, `Cc1ccc(Cl)cc1N(CC(=O)Nc1c(F)cccc1F)S(C)(=O)=O` gave a nucleus roundness z-score of 0.128.

`CC(C)Oc1ccc(-c2nc(-c3cccc4c3CC[C@@H]4NCCO)no2)cc1C#N` [Ozanimod (RPC1063)]: the nucleus roundness z-score was -0.631.

As to `O=c1c(-c2ccc(O)cc2)coc2cc(O)ccc12` [Daidzein], the nucleus roundness z-score is -0.128.

With `Nc1nc(CC(=O)Nc2ccc(CCNC[C@H](O)c3ccccc3)cc2)cs1` [Mirabegron], the nucleus roundness z-score worked out at 0.167.

Take `Cc1ccnc2c1NC(=O)c1cccnc1N2C1CC1` [Nevirapine]: the nucleus roundness z-score came out at 1.4.

`Cc1ccsc1C(=CCCN1CCC[C@@H](C(=O)O)C1)c1sccc1C` [Tiagabine] came in with a nucleus roundness z-score of 0.294.

Molecule `Cc1cc(C)nc(NS(=O)(=O)c2ccc(NC(=S)NC(=O)COc3ccc(Br)cc3Cl)cc2)n1` gave a nucleus roundness z-score of 1.6.

As for `CCC[C@@H]1C[C@@H](C(=O)N[C@@H]([C@H]2O[C@H](SC)[C@H](O)[C@@H](O)[C@H]2O)[C@@H](C)O)N(C)C1` [Lincomycin HCl], the nucleus roundness z-score stood at 0.236.

Turning to `N[C@@H](CCC(=O)N[C@@H](CS)C(=O)NCC(=O)O)C(=O)O` [Glutathione], the nucleus roundness z-score worked out at 1.15.

On to `Cc1nc2c(O)cccc2c(=O)[nH]1`, for which the nucleus roundness z-score was -1.24.

The molecule `CCN1CCN(Cc2ccc(-c3cc4c(N[C@H](C)c5ccccc5)ncnc4[nH]3)cc2)CC1` registered a nucleus roundness z-score of 0.294.

Consider `O=c1c(O)c(-c2ccc(O)c(O)c2)oc2cc(O)ccc12` [Fisetin], for which the nucleus roundness z-score amounted to 0.211.

In turn, `CC(C)(Oc1ccc(CCNC(=O)c2ccc(Cl)cc2)cc1)C(=O)O` [Bezafibrate] had a nucleus roundness z-score of 0.27.

Take `COC(=O)C1=C(C)NC(C)=C(C(=O)OC2CCCN(Cc3ccccc3)C2)C1c1cccc([N+](=O)[O-])c1` (centres undefined) [Benidipine HCl]: the nucleus roundness z-score is -2.96.

In turn, `CN(C)[C@@H]1C(O)=C(C(N)=O)C(=O)[C@@]2(O)C(O)=C3C(=O)c4c(O)cccc4[C@@](C)(O)[C@H]3[C@H](O)[C@@H]12` [Oxytetracycline Dihydrate] returned a nucleus roundness z-score of 1.52.

As to `CCn1cc(C(=O)O)c(=O)c2cc(F)c(N3CCNCC3)cc21` [Norfloxacin], the nucleus roundness z-score is -0.323.

With `c1ccc2c(c1)CCCC2C1=NCCN1` (centres undefined) [Tetrahydrozoline HCl], the nucleus roundness z-score is -0.912.
